Experimental data taken from paper PMC4932547, “Improved Aptamers for the Diagnosis and Potential Treatment of HER2-Positive Cancer”.

Target: HER2 on cell surface (SKOV3, SKBR3) (UniProt P04626)
Assay: competition with a labelled probe
Details: 100-fold excess on SKOV3, blocks anti-HER2 antibody and reduces labeled aptamer binding; Selection buffer: 10 mM HEPES, 120 mM NaCl, 5 mM MgCl2, 5 mM KCl; pH not stated; SPRi temperature not stated (50 uL/min, 50 or 100 nM HER2, BSA-blocked chip); protein on the cell surface; single-stranded DNA

Sequence | binding result
ATTAAGAACCATCACTCTTCCAAATGGATATACGACTGGG [HeA2_1 non-fluorescent competitor] | binds
TCTAAAAGGATTCTTCCCAAGGGGATCCAATTCAAACAGC [HeA2_3 non-fluorescent competitor] | binds

Construct, isoform or probe ends are uncertain for at least one entry. Where cells or extracts were used, other partners may take part.
